Source: PubChem BioAssay AID2685 (National Center for Advancing Translational Sciences (NCATS), 2010)
Some of the results follow. The main result of the screen is listed elsewhere. These columns were measured beside it and carry no call. Most of these compounds were active or inconclusive in the main read-out, so they are no random draw. Words in brackets tell the shape of the fitted curve; partial curves, single points and poor fits give uncertain potencies.

Assay: qHTS Assay for Lipid Storage Modulators in Drosophila S3 Cells;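 for cell number change: cells counted by Cell Tracker Red CMTPX staining in the red channel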
Settings: BODIPY lipid droplet fluorescence, 18-24 h; for cell number change: measured here: cell count max response, cells fed with added oleic acid
How it was run: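 Laser-scanning cytometry quantifies lipid droplet accumulation (500–530 nm total intensity; droplet/cell object ratio) in oleic acid-fed (400 uM added) Drosophila S3 cells treated with a concentration series. 20 uM Triacsin C defined 100% inhibition.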

[1] = measured here: cell number channel AC50, cells fed with added oleic acid
[2] = measured here: lipid fluorescence (Fed channel) AC50, cells fed with added oleic acid

**Q.** Which cell number change does the source give for `CC(C)CCNC(=O)CC1Nc2c3ccccc3nc(=S)n2C1=O` (configuration not stated) here?
**A.** 0.668%

**Q.** What about the AC50 [1] of the same molecule?
**A.** 0.116 µM [falling, full curve, poor fit]

**Q.** And the AC50 [2]?
**A.** 0.82 µM [falling, full curve, poor fit]

**Q.** With `O=C1/C(=C\c2cccc(O)c2O)SC(=S)N1Cc1ccccc1` as the molecule, how does the cell number change read?
**A.** -38.9%

**Q.** And the AC50 [1]?
**A.** 11.6 µM [falling, single point]

**Q.** With `O=S(=O)(c1cccs1)N1CCN(C/C=C/c2ccccc2)CC1` as the molecule, how does the AC50 [2] read?
**A.** 0.58 µM [falling, single point]

**Q.** Which cell number change does the source give for `C=CCSC1=N/C(=C\c2ccc(C(=O)O)cc2)C(=O)S1` here?
**A.** -1.27%

**Q.** For `NS(=O)(=O)c1ccc(N/N=C2/CCCCC2C2CCCCC2)c([N+](=O)[O-])c1` (configuration not stated), which cell number change is on record?
**A.** -92.8%

**Q.** What about the AC50 [1] of the same molecule?
**A.** 29.1 µM [falling, single point]

**Q.** For `NC(=O)C1CC(=O)N(c2ccc(OCC(=O)Nc3ccccc3F)cc2)C1` (configuration not stated), which cell number change is on record?
**A.** -16.5%

**Q.** With `Cc1[nH]c2ccccc2c1/C=N/NC(=O)c1cc(-c2ccccc2)n[nH]1` as the molecule, how does the cell number change read?
**A.** -21%

**Q.** What about the AC50 [2] of the same molecule?
**A.** 29.1 µM [falling, single point]

**Q.** Which results are given for `O=C(Cn1c(CC(=O)N2CCOCC2)nc2ccccc21)Nc1ccc2c(c1)OC(F)(F)O2`?
**A.** cell number change: -30.8%; AC50 [2]: 0.146 µM [falling, full curve, poor fit]

**Q.** Which cell number change does the source give for `COC(=O)C(C(=O)OC)=C(/C=C/N(C)C)N(C)C` here?
**A.** -13.4%

**Q.** What about the AC50 [2] of the same molecule?
**A.** 4.61 µM [falling, full curve]

**Q.** What does the source list for `COc1cc(C2NC(=O)N(C)C(C)=C2C(=O)OCc2ccccc2)cc(Br)c1O` (configuration not stated)?
**A.** cell number change: -0.647%; AC50 [2]: 0.00411 µM [falling, full curve, poor fit]

**Q.** Which results are given for `Cc1cccc(Oc2ccc(Cl)cc2N)c1`?
**A.** AC50 [1]: 6.51 µM [rising, single point]; AC50 [2]: 2.91 µM [rising, single point]

**Q.** For `CN1CCC(NC(=S)Nc2cccc([N+](=O)[O-])c2)CC1`, which cell number change is on record?
**A.** -29.4%

**Q.** What about the AC50 [1] of the same molecule?
**A.** 2.59 µM [falling, full curve, poor fit]

**Q.** Which cell number change does the source give for `O=C(O)CC(C(=O)NC1CCCCC1)C1CCCO1` (configuration not stated) here?
**A.** -15.4%

**Q.** And the AC50 [2]?
**A.** 29.1 µM [falling, single point]

**Q.** Which cell number change does the source give for `COc1ccc(C)cc1NC(=O)Cn1cnnn1` here?
**A.** -25%

**Q.** And the AC50 [1]?
**A.** 0.366 µM [falling, full curve, poor fit]

**Q.** And the AC50 [2]?
**A.** 0.00651 µM [falling, full curve, poor fit]

**Q.** Which cell number change does the source give for `CCC(C)[C@H](NC(=O)[C@@H]1CSC2c3ccccc3C(=O)N21)C(=O)NCC1CCCO1` (some centres not stated) here?
**A.** -25%

**Q.** Which cell number change does the source give for `COc1ccc2[nH]c(=O)c(CN(Cc3ccc4c(c3)OCO4)C(C)=O)cc2c1` here?
**A.** 1.81%

**Q.** What about the AC50 [2] of the same molecule?
**A.** 2.31 µM [rising, full curve]

**Q.** Which cell number change does the source give for `CN(C)c1cccc(N(C)C)c1CNC(=O)NC(=O)c1c(F)cccc1F` here?
**A.** -16.6%

**Q.** Which results are given for `Cc1c(NC(=O)c2ccc(N(C)S(C)(=O)=O)cc2)c(=O)n(-c2ccccc2)n1C`?
**A.** cell number change: -29%; AC50 [2]: 0.411 µM [falling, single point]

**Q.** Which cell number change does the source give for `CCC(=O)NCCc1nc2cc(NC(=O)c3ccc(OC)cc3)ccc2n1C` here?
**A.** 34.5%

**Q.** And the AC50 [1]?
**A.** 11.6 µM [rising, partial curve, poor fit]

**Q.** Which AC50 [2] does the source give for `O=C(c1ccc(-n2cncn2)c([N+](=O)[O-])c1)N1CCN(S(=O)(=O)c2ccccc2Br)CC1` here?
**A.** 0.0651 µM [rising, full curve, poor fit]

**Q.** What does the source list for `O=C(NCCOc1ccccc1)c1cncc(Br)c1`?
**A.** cell number change: 24.4%; AC50 [2]: 29.1 µM [rising, single point]

**Q.** For `Cc1ccc(OCC(=O)Nc2ccc(O)c(-c3nc4ccccc4o3)c2)cc1`, which cell number change is on record?
**A.** -78.7%

**Q.** And the AC50 [1]?
**A.** 13 µM [falling, partial curve, poor fit]

**Q.** And the AC50 [2]?
**A.** 29.1 µM [falling, single point]

**Q.** For `CS(=O)(=O)N(CC(=O)NC1CCCCCC1)Cc1ccc(Cl)cc1`, which cell number change is on record?
**A.** -59.6%

**Q.** What about the AC50 [1] of the same molecule?
**A.** 29.1 µM [falling, single point]

**Q.** Which cell number change does the source give for `CCOc1ccc(OCCC(=O)OCC(=O)NC2CCCCC2)cc1` here?
**A.** 5.94%

**Q.** What about the AC50 [2] of the same molecule?
**A.** 29.1 µM [rising, single point]

**Q.** With `COc1cc(SC#N)ccc1N=Cc1c(C)[nH]n(-c2ccc(C)cc2)c1=O` as the molecule, how does the cell number change read?
**A.** -65.1%

**Q.** And the AC50 [1]?
**A.** 16.4 µM [falling, partial curve]

**Q.** What about the AC50 [2] of the same molecule?
**A.** 14.6 µM [falling, partial curve]

**Q.** Which cell number change does the source give for `COc1ccc(S(=O)(=O)N(C)CC(=O)NC2CC2)cc1OC` here?
**A.** 8.42%

**Q.** And the AC50 [2]?
**A.** 0.58 µM [rising, single point]

**Q.** What does the source list for `COC(=O)c1ccc(C23CC4(C2)[C@H](CN(C)[C@@H]4c2ccccc2)C3c2ccc(C(F)(F)F)cc2)cc1` (some centres not stated)?
**A.** cell number change: -1.27%; AC50 [2]: 0.116 µM [rising, full curve, poor fit]

**Q.** Which results are given for `Cc1ccc(N2C(=O)C3C(c4ccccc4)N4CCCN4C3(C)C2=O)cc1` (configuration not stated)?
**A.** cell number change: 16.2%; AC50 [2]: 8.2 µM [falling, partial curve]

**Q.** With `CCOC(=O)C1CCCN(C(=O)c2cccc(S(=O)(=O)N(C)c3c(C)n(C)n(-c4ccccc4)c3=O)c2)C1` (configuration not stated) as the molecule, how does the cell number change read?
**A.** -4.59%

**Q.** And the AC50 [2]?
**A.** 2.06 µM [falling, single point]

**Q.** For `Cn1cc(Br)c(C(=O)NC(=S)N2CCN(c3ccccn3)CC2)n1`, which cell number change is on record?
**A.** 22.6%

**Q.** With `C=CCSC1=Nc2cc(OC)c(OC)cc2C2=NC(=O)CN12` as the molecule, how does the cell number change read?
**A.** -26%

**Q.** Which cell number change does the source give for `COc1ccc(/C=C(/Sc2nnc(-c3ccc(Cl)cc3)o2)C(=O)O)cc1` here?
**A.** 35.5%

**Q.** What does the source list for `COc1ccc(OC)c(NC(=O)COC(=O)c2ccc(-n3cnnn3)cc2)c1`?
**A.** cell number change: 0.725%; AC50 [2]: 0.731 µM [rising, single point]

**Q.** For `CN1CCN(c2ccc(NC(=O)COc3cccc4ccccc34)cc2)CC1`, which cell number change is on record?
**A.** 9.66%

**Q.** What about the AC50 [2] of the same molecule?
**A.** 6.51 µM [falling, single point]

**Q.** What does the source list for `CCOC(=O)C1CCCN(C(=O)CCn2nc(-c3ccccc3)ccc2=O)C1` (configuration not stated)?
**A.** cell number change: -24.8%; AC50 [2]: 3.26 µM [rising, partial curve]

**Q.** Which cell number change does the source give for `Cc1ccc(-n2c(CNc3ccc(C)c(Cl)c3)n[nH]c2=S)cc1` here?
**A.** -37.9%

**Q.** What about the AC50 [1] of the same molecule?
**A.** 29.1 µM [falling, single point]

**Q.** And the AC50 [2]?
**A.** 32.6 µM [falling, single point]

**Q.** Which results are given for `Cc1cccc(NC(=O)c2cccs2)n1`?
**A.** cell number change: 0.506%; AC50 [2]: 10.3 µM [rising, single point]

**Q.** Which cell number change does the source give for `COc1ccc(C(C)=O)cc1Cn1c(=O)cc(C)[nH]c1=O` here?
**A.** -39.7%

**Q.** And the AC50 [1]?
**A.** 14.6 µM [falling, partial curve, poor fit]
